Data on 16 molecules can be found in patent US20240400677A1.

Protein sequences, listed by entry. Tags and fused reporters are not part of them. Lines headed by an entry give the natural chain unless they say otherwise; changes in a name come on top. Chains listed by the source or under a name are the forms on record and can include a tag or linker. Residues count along the entry.
human SIRPα V2-His monomer protein (P78324, form named): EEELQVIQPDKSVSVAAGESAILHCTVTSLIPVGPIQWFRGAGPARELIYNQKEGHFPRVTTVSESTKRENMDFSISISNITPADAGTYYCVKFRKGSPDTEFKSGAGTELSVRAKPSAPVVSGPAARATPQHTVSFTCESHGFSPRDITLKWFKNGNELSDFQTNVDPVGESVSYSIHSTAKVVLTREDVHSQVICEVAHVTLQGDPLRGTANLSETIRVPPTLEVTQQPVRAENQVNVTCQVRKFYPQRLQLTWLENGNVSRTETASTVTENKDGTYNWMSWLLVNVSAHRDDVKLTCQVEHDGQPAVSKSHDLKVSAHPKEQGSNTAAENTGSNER
UniProt O00241, residues 30-371: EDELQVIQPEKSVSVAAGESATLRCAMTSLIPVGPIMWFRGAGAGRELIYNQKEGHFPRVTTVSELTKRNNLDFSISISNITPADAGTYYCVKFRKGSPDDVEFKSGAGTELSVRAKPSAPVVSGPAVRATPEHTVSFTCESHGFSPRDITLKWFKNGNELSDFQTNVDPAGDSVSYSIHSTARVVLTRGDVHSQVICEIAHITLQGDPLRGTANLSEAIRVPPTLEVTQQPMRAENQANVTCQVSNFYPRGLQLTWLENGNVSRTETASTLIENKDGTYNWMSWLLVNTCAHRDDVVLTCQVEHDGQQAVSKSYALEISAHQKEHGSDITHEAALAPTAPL

No constants are given. Whether binding was seen depends on the method and setting.

What all share (experiment): BLI
(BLI is a label-free optical method that tracks binding on a fibre tip over time.)

Assay [1] deals with human SIRPα V2-His monomer protein (human) (UniProt P78324).
Assay [2] addresses human SIRPβ1-His monomer protein (human) (UniProt O00241).
Assay [3] deals with cynomolgus monkey SIRPα-His monomer protein (cynomolgus monkey).

B1: Antibody 9 (scFv, V domains shown)
VH: QVQLVQSGAEVKKPGASVKVSCKASGYSFSDYYMHWVRQAPGQGLEWMGWMSPNSGNTGYAQKFQGRVTMTRDTSTSTVYMELSSLRSEDTAVYYCARQREEYGHYYYGMDVWGQGTMVTVSS
VL: EIVMTQSPATLSVSPGERATLSCRASQSLGSTYLAWYQQKPGQAPRLLIYGASTRATGIPARFSGSGSGTEFTLTISSLQSEDFAVYYCQQYYSSPPTFGQGTKVEIK
For the molecule B1, the binding entry in assay [1] is reported as “no binding (tested: <0.02 nm at 115 s; 500 nM)”; in assay [2], “no binding (tested: <0.02 nm at 115 s; 500 nM)”; in assay [3] it was “no binding (tested: <0.02 nm at 115 s)”.

B2: Antibody 47 (scFv, V domains shown)
VH: QVQLVQSGAEVKKPGASVKVSCKASGYTFTTYGISWVRQAPGQGLEWMGWMDPNSGSTGYAQKFQGRVTMTRDTSTSTVYMELSSLRSEDTAVYYCARGRGNSYYYYYMDVWGKGTTVTVSS
VL: DIQMTQSPSSLSASVGDRVTITCRASQRIGSYLNWYQQKPGKAPKLLIYGASNLQSGVPSRFSGSGSGTDFTLTISSLQPEDFATYYCQQANSFPFTFGPGTKVDIK
As for B2, the binding result in assay [1] is given as “no binding (tested: <0.02 nm at 115 s; 500 nM)”; in assay [2], “no binding (tested: <0.02 nm at 115 s; 500 nM)”; in assay [3] it was “no binding (tested: <0.02 nm at 115 s)”.

B3: Antibody 31 (scFv, V domains shown)
VH: QVQLVQSGAEVKKPGASVKVSCKASGGTFRSYAISWVRQAPGQGLEWMGWMNPNSGNTGYAQKFQGRVTMTRDTSTSTVYMELSSLRSEDTAVYYCARESVLKGGMDVWGQGTTVTVSS
VL: DIVMTQSPDSLAVSLGERATINCRSSQSLFHSSTNANNLAWYQQKPGQPPKLLIYWASTRESGVPDRFSGSGSGTDFTLTISSLQAEDVAVYYCQQYYITPLTFGQGTRLEIK
On to B3, for which the binding result in assay [2] was “no binding (tested: <0.02 nm at 115 s; 500 nM)”; in assay [3] it was “no binding (tested: <0.02 nm at 115 s)”.

B4: Antibody 51 (scFv, V domains shown)
VH: QVQLVQSGAEVKKPGASVKVSCKASGYTFTRYDINWVRQAPGQGLEWMGWMNPNSGNTGYAQKLQGRVTMTRDTSTSTVYMELSSLRSEDTAVYYCARERVGYCSSTSCLHPLDYWGQGTLVTVSS
VL: DIQMTQSPSSLSASVGDRVTITCRASQGIRNDLGWYQQKPGKAPKLLIYSASNLQSGVPSRFSGSGSGTDFTLTISSLQPEDFATYYCQQSYDVPLTFGGGTKVEIK
For B4, the binding result in assay [1] is recorded as “no binding (tested: <0.02 nm at 115 s; 500 nM)”; in assay [2] it was “no binding (tested: <0.02 nm at 115 s; 500 nM)”; in assay [3], “no binding (tested: <0.02 nm at 115 s)”.

B5: Antibody 19 (scFv, V domains shown)
VH: QVQLVQSGAEVKKPGASVKVSCKASGYTFTAYYMHWVRQAPGQGLEWMGIINPSGGSTSYAQKFQGRVTMTRDTSTSTVYMELSSLRSEDTAVYYCARDSGWYAPGYYYGMDVWGQGTTVTVSS
VL: DIQMTQSPSSLSASVGDRVTITCRASESISHWLAWYQQKPGKAPKLLIYGASTLQSGVPSRFSGSGSGTDFTLTISSLQPEDFATYYCQQSYTPPLTFGGGTKVEIK
With B5, the binding result in assay [1] and in assay [2] was “no binding (tested: <0.02 nm at 115 s; 500 nM)” each time.

B6: Antibody 12 (scFv, V domains shown)
VH: QVQLVQSGAEVKKPGASVKVSCKASGGTFGSYGINWVRQAPGQGLEWMGWISAYNGNTNYAQKLQGRVTMTRDTSTSTVYMELSSLRSEDTAVYYCARDGIDYGGNSGYDYWGQGTLVTVSS
VL: DIQMTQSPSSLSASVGDRVTITCRASQNIRNYLNWYQQKPGKAPKLLIYAASSLQGGVPSRFSGSGSGTDFTLTISSLQPEDFATYYCQQSYNGPYTFGQGTKVEIK
For the molecule B6, the binding result in assay [1] and in assay [2] was “no binding (tested: <0.02 nm at 115 s; 500 nM)” in each case.

B7: Antibody 13 (scFv, V domains shown)
VH: EVQLLESGGGLVQPGGSLRLSCAASGFTFSNSDMNWVRQAPGKGLEWVSYISSSGNTIYYADSVKGRFTISRDNSKNTLYLQMNSLRAEDTAVYYCARSNWNYPLDYYYMDVWGKGTTVTVSS
VL: DIVMTQSPLSLPVTPGEPASISCRSSQSLLHSNGYNYLDWYLQKPGQSPQLLIYAASSLQSGVPDRFSGSGSGTDFTLKISRVEAEDVGVYYCMQGTHWPPTFGQGTKVEIK
B7: the binding result in assay [1] is on record as “no binding (tested: <0.02 nm at 115 s; 500 nM)”; in assay [2] it was “no binding (tested: <0.02 nm at 115 s; 500 nM)”; in assay [3], “no binding (tested: <0.02 nm at 115 s)”.

B8: Antibody 53 (scFv, V domains shown)
VH: QVQLVQSGAEVKKPGASVKVSCKASGHTFNNNYIHWVRQAPGQGLEWMGIINPSGGSTSYAQKFQGRVTMTRDTSTSTVYMELSSLRSEDTAVYYCARQIQDYGYYYYGMDVWGQGTTVTVSS
VL: EIVMTQSPATLSVSPGERATLSCRASQSVSKYLAWYQQKPGQAPRLLIYAISARAAGIPARFSGSGSGTEFTLTISSLQSEDFAVYYCQQYYSSPPTFGQGTKVEIK
For B8, the binding entry is reported as “no binding (tested: <0.02 nm at 115 s; 500 nM)” in assay [1], “no binding (tested: <0.02 nm at 115 s; 500 nM)” in assay [2] and “no binding (tested: <0.02 nm at 115 s)” in assay [3].

B9: Antibody 43 (scFv, V domains shown)
VH: QVQLVQSGAEVKKPGASVKVSCKASGGTFTSYDINWVRQAPGQGLEWMGWISAYNGHTNYAQNLQGRVTMTRDTSTSTVYMELSSLRSEDTAVYYCAREDSSWYFDLWGRGTLVTVSS
VL: DIQMTQSPSSLSASVGDRVTITCRASQSISSWLAWYQQKPGKAPKLLIYDASNLETGVPSRFSGSGSGTDFTLTISSLQPEDFATYYCQQSFSTPPTFGQGTKVEIK
Regarding B9, the binding result in assay [1] is given as “no binding (tested: <0.02 nm at 115 s; 500 nM)”; in assay [2] it was “no binding (tested: <0.02 nm at 115 s; 500 nM)”; in assay [3], “no binding (tested: <0.02 nm at 115 s)”.

B10: Antibody 50 (scFv, V domains shown)
VH: QVQLVQSGAEVKKPGASVKVSCKASGYTFTGYYMHWVRQAPGQGLEWMGTINPSGGSTSYAQKFQGRVTMTRDTSTSTVYMELSSLRSEDTAVYYCVKGNGYYDLWGQGTLVTVSS
VL: DIQMTQSPSSLSASVGDRVTITCRASQSISSWLAWYQQKPGKAPKLLIYDTSNLQGGVPSRFSGSGSGTDFTLTISSLQPEDFATYYCQQYDSFPWTFGQGTKVEIK
B10: the results for the binding result in assay [2] and in assay [3] were “no binding (tested: <0.02 nm at 115 s; 500 nM)” and “no binding (tested: <0.02 nm at 115 s)”, respectively.

B11: Antibody 52 (scFv, V domains shown)
VH: QVQLVQSGAEVKKPGASVKVSCKASGYTFTSYDINWVRQAPGQGLEWMGWISGYNGNTNYAQKFQGRVTMTRDTSTSTVYMELSSLRSEDTAVYYCARSFDWLLLLDYWGQGTLVTVSS
VL: DIQMTQSPSSLSASVGDRVTITCRASQSISSWLAWYQQKPGKAPKLLIYDATTLESGVPSRFSGSGSGTDFTLTISSLQPEDFATYYCQQYDSYPWTFGQGTKLEIK
As for B11, the binding result in assay [1] is on record as “no binding (tested: <0.02 nm at 115 s; 500 nM)”; in assay [2] it was “no binding (tested: <0.02 nm at 115 s; 500 nM)”; in assay [3], “no binding (tested: <0.02 nm at 115 s)”.

B12: Antibody 17 (scFv, V domains shown)
VH: QVQLVQSGAEVKKPGASVKVSCKASGYTFTRNYVHWVRQAPGQGLEWMGRINPNSGGTNTAQKFQGRVTMTRDTSTSTVYMELSSLRSEDTAVYYCARLGDVAVAASFDYWGQGTLVTVSS
VL: DIQMTQSPSSLSASVGDRVTITCRASQSISSYLNWYQQKPGKAPKLLIYDASSLESGVPSRFSGSGSGTDFTLTISSLQPEDFATYYCQQANSFPLTFGPGTKVDIK
B12: the binding entry in assay [1] is on record as “no binding (tested: <0.02 nm at 115 s; 500 nM)”; in assay [3] it was “no binding (tested: <0.02 nm at 115 s)”.

B13: Antibody 37 (scFv, V domains shown)
VH: QVQLVQSGAEVKKPGASVKVSCKASGYTLNNYDINWVRQAPGQGLEWMGWISGYNGNTNYAQKLQGRVTMTRDTSTSTVYMELSSLRSEDTAVYYCARVGSSWEENDQWGQGTLVTVSS
VL: DIQMTQSPSSLSASVGDRVTITCRASQSISRWLAWYQQKPGKAPKLLIYAASSLESGVPSRFSGSGSGTDFTLTISSLQPEDFATYYCQQTHSFPLTFGGGTKVEIK
For B13, the binding entry in assay [1] and in assay [2] was “no binding (tested: <0.02 nm at 115 s; 500 nM)” in each case.

B14: Antibody 10 (scFv, V domains shown)
VH: QVQLVQSGAEVKKPGASVKVSCKASGGTFSNYDISWVRQAPGQGLEWMGMIDPSGGSTSYAQKFQGRVTMTRDTSTSTVYMELSSLRSEDTAVYYCARPYSSGWYYFDYWGQGTLVTVSS
VL: DIQMTQSPSSLSASVGDRVTITCQASQDIHNYLNWYQQKPGKAPKLLIYDASNLETGVPSRFSGSGSGTDFTLTISSLQPEDFATYYCQQSYNTPPTFGQGTRLEIK
In the case of B14, the figures for the binding entry in assay [1], in assay [2] and in assay [3] were “no binding (tested: <0.02 nm at 115 s; 500 nM)”, “no binding (tested: <0.02 nm at 115 s; 500 nM)” and “no binding (tested: <0.02 nm at 115 s)”, respectively.

B15: Antibody 28 (scFv, V domains shown)
VH: QVQLVQSGAEVKKPGASVKVSCKASGYTFTSYNIHWVRQAPGQGLEWMGWISAYNGNTNYAQKLQGRVTMTRDTSTSTVYMELSSLRSEDTAVYYCALDGGQLGVAFDIWGQGTMVTVSS
VL: DIQMTQSPSSLSASVGDRVTITCRASQGISNWLAWYQQKPGKAPKLLIYDASNLDAGVPSRFSGSGSGTDFTLTISSLQPEDFATYYCQQANSLPLTFGGGTKVEIK
As to B15, the binding result in assay [3] is given as “no binding (tested: <0.02 nm at 115 s)”.

B16: Antibody 48 (scFv, V domains shown)
VH: QVQLVQSGAEVKKPGASVKVSCKASGYTFTSYYMHWVRQAPGQGLEWMGWMNPNSGNTGYAQKFQGRVTMTRDTSTSTVYMELSSLRSEDTAVYYCARDQMYSSYGMDVWGQGTTVTVSS
VL: DIQMTQSPSSLSASVGDRVTITCRASESITNWLAWYQQKPGKAPKLLIYKASSLESGVPSRFSGSGSGTDFTLTISSLQPEDFATYYCQQSYGTPYTFGQGTKVEIK
For B16, the results for the binding result in assay [1], in assay [2] and in assay [3] were “no binding (tested: <0.02 nm at 115 s; 500 nM)”, “no binding (tested: <0.02 nm at 115 s; 500 nM)” and “no binding (tested: <0.02 nm at 115 s)”, respectively.
